Source: PMC11091053
No constants are given. Whether binding was seen depends on the method and setting. Binding seen in cells or lysates may run through a third protein. Some entries that bind do so weakly or less than the wild type. For some of these results: Where a sequence is shown, tags or fusion partners need not be part of it.

Chains of the proteins cited; added tags and fusions are not shown. Lines headed by an entry give the natural chain unless they say otherwise; changes in a name come on top.
UniProt P62897: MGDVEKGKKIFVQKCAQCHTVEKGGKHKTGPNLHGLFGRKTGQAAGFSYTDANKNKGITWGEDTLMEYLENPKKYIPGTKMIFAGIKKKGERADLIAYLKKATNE

T1: Pirh2 (p53-induced RING-H2 protein), endogenous in N2A cells (mouse (endogenous in N2A)) (UniProt Q9CR50)
T1 sequence: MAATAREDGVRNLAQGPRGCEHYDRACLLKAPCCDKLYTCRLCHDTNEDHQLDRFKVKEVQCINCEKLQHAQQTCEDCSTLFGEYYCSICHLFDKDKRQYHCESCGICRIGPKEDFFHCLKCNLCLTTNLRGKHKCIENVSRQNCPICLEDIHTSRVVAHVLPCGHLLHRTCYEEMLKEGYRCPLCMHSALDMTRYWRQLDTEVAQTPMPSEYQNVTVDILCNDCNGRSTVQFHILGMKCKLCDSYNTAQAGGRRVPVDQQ

T2: Myc-DDK-tagged wild-type mouse Pirh2 (mouse) (UniProt Q9CR50)
T2 sequence: T1 sequence

B1: Pirh2 (p53-induced RING-H2 protein), endogenous in N2A cells (protein, UniProt Q9CR50 1-261)
chain: T1 sequence

Assays:
[1] = biological target: T1, Pirh2 (p53-induced RING-H2 protein), endogenous in N2A cells (mouse (endogenous in N2A)); assay: co-IP; anti-Pirh2 antibody, cytosolic fractions of N2A cells (scrambled or siRNA-Pirh2, with or without STZ or Aβ1-42) and of rat brain cortex and hippocampus (with or without Aβ1-42); blotted for cytochrome c and Pirh2; IgG as negative control
[2] = biological target: T1, Pirh2 (p53-induced RING-H2 protein), endogenous in N2A cells (mouse (endogenous in N2A)); assay: co-IP; anti-Pirh2 antibody on protein G-Sepharose, overnight 4 °C, 2 mg whole lysate of N2A cells (with or without STZ and MG132) or of rat brain cortex and hippocampus (with or without STZ); blotted for cytochrome c and Pirh2; IgG as negative control
[3] = biological target: T2, Myc-DDK-tagged wild-type mouse Pirh2 (mouse); assay: co-IP; anti-Flag antibody on protein G-Sepharose, lysate of N2A cells transiently transfected with Myc-DDK-Pirh2; blotted for cytochrome c and Pirh2; IgG as negative control
[4] = biological target: cytochrome c, endogenous in N2A cells (mouse (endogenous in N2A)) (UniProt P62897); assay: co-IP; reverse: anti-cytochrome c antibody on protein G-Sepharose, N2A cell lysate and rat brain cortex and hippocampus lysate; blotted for Pirh2 and cytochrome c; IgG as negative control

Molecule | binding [1] | binding [2] | binding [3] | binding [4]
cytochrome c, endogenous in N2A cells (from UniProt P62897 1-105) | binds | binds | binds | –
B1 | – | – | – | binds
